# Experimental data: PubChem BioAssay AID463116 (University of Pittsburgh Molecular Library Screening Center, 2010)
# The list shows a part of the results. Further columns of the screen follow, without active or inactive calls. Compounds called inactive in the main read-out are mostly missing here.
# Assay: dynein cargo transport inhibitors, GR-EGFP translocation, confirmation, imaging, high-content imaging, GR-EGFP cells (AID 463116)
# Conditions: 3617.4 GR-EGFP nuclear translocation imaging, dexamethasone-induced; measured here: cell count per field; at 20 µM
row,SMILES,z-score
1,Cc1ccc(C)c(C(=O)Cn2ncc(Cl)c(Cl)c2=O)c1,-1.46
2,COc1cc(OC)nc(-n2ncc(Br)c(Br)c2=O)n1,-0.0916
3,CCN(CC)c1ccc(/C=C2\CCC(/C=N/NC(=O)c3ccc(=O)n(C)c3)=C2N2CCOCC2)cc1,-0.0319
4,O=[N+]([O-])c1ccc(Sc2nccn2Cc2ccccc2)c([N+](=O)[O-])c1,-0.66
5,COc1cc(C(Nc2ccccn2)c2ccc3ccc(C)nc3c2O)cc(OC)c1O (stereo unspecified),-0.509
6,Cc1ccccc1NC(=O)C(Cl)=C(Cl)Cl,0.11
7,COc1cccc(/C=C/C(=O)c2cccc([N+](=O)[O-])c2)c1OC,0.267
8,COC(=O)c1cc(=O)n(Cc2ccc(OC)c(OC)c2)c(=Nc2ccc(F)cc2)s1,0.489
9,CC1(C)CC(=O)C2=C(C1)OC1=C(C(=O)CC(C)(C)C1)C2c1ccc(O)cc1O,1.06
10,Nc1nc(CCl)nc(Nc2ccc3ccccc3c2)n1,0.228
11,O=C(c1cccs1)n1nc(-c2ccccc2)nc1NCc1ccco1,0.525
12,CS(=O)(=O)c1sc(C#N)c2c1C(=O)CC(c1ccccc1)C2 (stereo unspecified),-0.534
13,CCCCCCCOC(=O)C[N+](C)(C)CCOC1CC2CCC1(C)C2(C)C (stereo unspecified),-5.44
14,COc1ccccc1NC1=C(NC(C)=O)C(=O)c2ccccc2C1=O,-0.48
15,COc1ccc(-c2csc3nc(-c4cccnc4)nc(Cl)c23)cc1OC,0.108
16,O=C(CCl)Nc1cc(-c2ccccc2)nn1-c1ccccc1,-0.158
17,CS(=O)c1nc(-c2ccc(Br)cc2)cc(-c2ccccc2)c1C#N (stereo unspecified),-3.14
18,Cc1ccc(S(=O)(=O)NC2OC(=O)C(Cl)=C2Cl)cc1 (stereo unspecified),-0.792
19,CCOC(=O)c1c(C)oc2c1c(C(c1cccnc1)N1CCOCC1)c(O)c1ccccc12 (stereo unspecified),0.994
20,O=C(CCl)N1N=C(c2ccco2)CC1c1cccs1 (stereo unspecified),0.156
21,O=[N+]([O-])c1c(NCCCO)cc(SCc2ccco2)c2nonc12,0.397
22,CCn1nc([N+](=O)[O-])c(C(C#N)c2nc3cc(C(F)(F)F)ccc3s2)c(Cl)c1=O (stereo unspecified),-0.206

row,SMILES,z-score
1,CCCOc1ccc(C(=O)CCN2CCN(C(=O)OCC)CC2)cc1,-0.164
2,Clc1ncnc2scc(C3COc4ccccc4O3)c12 (stereo unspecified),1.18
3,COc1ccc(/C=C(/C(=O)c2cccs2)N2C=CC=CC2=C(C#N)C#N)cc1,-1.29
4,O=C(CN(c1cccc(C(F)(F)F)c1)S(=O)(=O)c1ccc(Cl)c([N+](=O)[O-])c1)NCc1ccccc1,-0.216
5,CC(=O)/C=C1/C(=O)Nc2ccccc21,0.192
6,CCOC(=O)C1CCN(C(=O)Nc2ccc3nc(-c4ccco4)c(-c4ccco4)nc3c2)CC1,0.554
7,O=c1c2ccccc2nc(/C=C/c2ccc([N+](=O)[O-])o2)n1CCCO,0.0205
8,COC(=O)c1ccc(C(=O)OC)c(-n2c(=O)c3ccccc3c3ccccc3c2=O)c1,0.125
9,Cc1nc2c(ccc3nc(NC(=O)c4ccc(S(=O)(=O)N(C)C)cc4)sc32)s1,0.876
10,Cc1ccc2nc(Nc3ccc4[nH]c(=O)[nH]c4c3)c(-n3nc(C)cc3C)nc2c1,0.359
11,COc1ccc(N2C(=O)CC(Sc3ncn[nH]3)C2=O)c(OC)c1 (stereo unspecified),0.251
12,CCCc1ccc(/C=C2\C(=O)c3ccccc3C(O)=C2C(=O)OCC)cc1,-1.88
13,O=C(CCSc1ccccn1)c1ccccc1,0.857
14,CC(C)N(C(=O)COC(=O)c1ccccc1C(=O)c1ccc(Cl)c([N+](=O)[O-])c1)C(C)C,0.0465
15,CCCC(=O)N1CCN(c2ccc(NC(=O)c3ccc([N+](=O)[O-])o3)cc2)CC1,0.105
16,CCCN1C(=O)/C(=C/C=C2\N(CC)c3ccccc3C2(C)C)SC1=S,0.286
17,O=S1(=O)CC=C(CSC(=S)NC2CCS(=O)(=O)C2)C1 (stereo unspecified),-0.307
18,CN(Cc1ccc(Cl)cc1)C(=O)CCl,-0.356
19,Cc1cc(-c2cccs2)c2c(N)c(C(=O)c3ccc4c(c3)OCO4)sc2n1,0.122
20,CCOc1ccc(C(=O)C(CCC(CN(C)C)C(=O)c2ccc(OCC)cc2)CN(C)C)cc1 (stereo unspecified),-3.8
21,Cc1ccc(N2C(=O)CC(Sc3ncn[nH]3)C2=O)cc1C (stereo unspecified),0.574
22,CCC1Oc2ccc(C)cc2N(CC(=O)N(Cc2cccnc2)Cc2ccc(C)o2)C1=O (stereo unspecified),0.331

# Some values from the results shown:
# For z-score, `CCCOc1ccc(C(=O)CCN2CCN(C(=O)OCC)CC2)cc1` has -0.164
# For z-score, `Clc1ncnc2scc(C3COc4ccccc4O3)c12` (stereo unspecified) has 1.18
# For z-score, `CCOC(=O)C1CCN(C(=O)Nc2ccc3nc(-c4ccco4)c(-c4ccco4)nc3c2)CC1` has 0.554

# The results go on:

row,SMILES,z-score
1,CC(=O)N(CCC(c1ccco1)C(C)C)Cc1ccc(Cl)cc1 (stereo unspecified),-0.041
2,Cn1c(-c2ccccc2)c(C(=O)CCl)c2ccccc21,-0.434
3,CCN1C/C(=C/c2cccc([N+](=O)[O-])c2)C(=O)/C(=C/c2cccc([N+](=O)[O-])c2)C1,0.403
4,Cc1ccc(C)c2nc3sc(C(=O)N4CCCc5ccccc54)c(N)c3cc12,-0.226
5,COCCCNc1c2c3c(cccc3[nH]c1=O)C(=O)c1ccccc1-2,0.934
6,CN1C(=O)C(O)(CC(=O)/C=C\c2ccc3c(c2)OCO3)c2ccccc21 (stereo unspecified),-0.0746
7,NC(=O)N/N=C/c1c(Sc2nnnn2-c2ccccc2)nc2ccccn2c1=O,0.489
8,Cc1ccc(S(=O)(=O)/N=c2\ccc(Cl)cn2C(F)F)cc1,0.00269
9,COCCN(CC(=O)NC1CCCCC1)C(=O)/C=C/C(=O)c1ccc(OC)cc1O,0.206
10,O=C(N/N=C/c1ccc(N2CCCCC2)o1)c1ccccc1,-0.409
11,CCC(C)(C)c1ccc(OCCCC[n+]2cccc(C)c2)c(C(C)(C)CC)c1,-6.32
12,Cc1ccc(-n2ncc(Br)c(Br)c2=O)cc1,0.194
13,O=C1C(Cl)=C(NS(=O)(=O)c2ccc([N+](=O)[O-])cc2)C(=O)c2ccccc21,0.395
14,O=C(Cn1sc2ccccc2c1=O)NC12CC3CC(CC(C3)C1)C2,0.766
15,O=C(c1ccc(F)cc1)C(CN1CCOCC1)c1ccccc1 (stereo unspecified),0.148
16,CCc1ccc(NS(=O)(=O)c2cccs2)cc1,-0.425
17,CC1=NNC(=O)/C1=C\c1cn(-c2ccccc2)nc1-c1ccccc1,-0.882
18,O=C(Cn1ncc(Cl)c(Cl)c1=O)N1CCOCC1,0.193
19,CCCC(=O)N(C1CC(C)C(C#N)(C#N)C1(C#N)C#N)N(C)C (stereo unspecified),-3.96
20,C=C(C(=O)c1ccccc1)C(C(=C)C(=O)c1ccccc1)c1ccc(OC)cc1,-0.299
21,CC1=C(CO)C(=O)OC([C@@H](C)C2CC[C@H]3C4C[C@H]5O[C@]56[C@@H](O)C=CC(=O)[C@]6(C)C4CC[C@]23C)C1 (stereo partly specified),0.168
22,Cc1cccc(N2CCN(C(=O)Cn3sc4nc(C)cc(C)c4c3=O)CC2C)c1 (stereo unspecified),-0.611
